Data as given in PubChem BioAssay AID1224830 (NIAID, 2016).

- Purpose: 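Regulators of TLR4 signalling towards TNF-alpha in macrophage-like cells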 (primary screen)
- Cell system: human THP-1 monocytic leukaemia cells, TNF dual-luciferase reporter clone, PMA-differentiated to macrophage-like cells
- Knock-down reagent: siRNA pool against human genes, 50 nM
- Time to read-out: LPS for 4 h, given about 3 days after siRNA transfection
- Conditions: bacterial LPS (TLR4 ligand), 10 ng/ml
- Detection: 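TNF firefly reporter luminescence divided by renilla, normalised to the plate median, then turned into a robust z-score for each replicate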
- Reading the numbers: TNF reporter robust z-score: higher = stronger TNF reporter response to LPS
- Rule for the call: 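a well is active when its z-score exceeds 2.8 or falls below -1.5; control wells carry no call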
The deposit covers about 18,000 reagents; shown is an unselected part. Of all reagents, about 2,900 (16%) were called active. 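Calls are made per well; low scores hint the gene aids the LPS response, high scores that it dampens it.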 Repeated entries: four replicate wells of each siRNA pool.

target gene	TNF reporter robust z-score	Call
INSIG2 (insulin induced gene 2)	2.99	active
INSIG2 (insulin induced gene 2)	0.59	inactive
INSIG2 (insulin induced gene 2)	0.98	inactive
INSIG2 (insulin induced gene 2)	2.13	inactive
FLAD1 (flavin adenine dinucleotide synthetase 1)	1.05	inactive
FLAD1 (flavin adenine dinucleotide synthetase 1)	0.69	inactive
FLAD1 (flavin adenine dinucleotide synthetase 1)	1.02	inactive
FLAD1 (flavin adenine dinucleotide synthetase 1)	1.49	inactive
LRRC34 (leucine rich repeat containing 34)	-0.1	inactive
LRRC34 (leucine rich repeat containing 34)	0.47	inactive
LRRC34 (leucine rich repeat containing 34)	-0.02	inactive
LRRC34 (leucine rich repeat containing 34)	0.27	inactive
PPP2R5D (protein phosphatase 2 regulatory subunit B'delta)	0.4	inactive
PPP2R5D (protein phosphatase 2 regulatory subunit B'delta)	1.2	inactive
PPP2R5D (protein phosphatase 2 regulatory subunit B'delta)	-0.75	inactive
PPP2R5D (protein phosphatase 2 regulatory subunit B'delta)	1.53	inactive
OR4C3 (olfactory receptor family 4 subfamily C member 3)	-0.37	inactive
OR4C3 (olfactory receptor family 4 subfamily C member 3)	-0.71	inactive
OR4C3 (olfactory receptor family 4 subfamily C member 3)	-1.15	inactive
OR4C3 (olfactory receptor family 4 subfamily C member 3)	-0.4	inactive
BANP (BTG3 associated nuclear protein)	0.22	inactive
BANP (BTG3 associated nuclear protein)	0.78	inactive
BANP (BTG3 associated nuclear protein)	-1.06	inactive
BANP (BTG3 associated nuclear protein)	0.46	inactive
RNPEPL1 (arginyl aminopeptidase like 1)	-0.38	inactive
RNPEPL1 (arginyl aminopeptidase like 1)	2.1	inactive
RNPEPL1 (arginyl aminopeptidase like 1)	3.17	active
RNPEPL1 (arginyl aminopeptidase like 1)	0.64	inactive
HS2ST1 (heparan sulfate 2-O-sulfotransferase 1)	0.31	inactive
HS2ST1 (heparan sulfate 2-O-sulfotransferase 1)	1.32	inactive
HS2ST1 (heparan sulfate 2-O-sulfotransferase 1)	0.83	inactive
HS2ST1 (heparan sulfate 2-O-sulfotransferase 1)	-0.32	inactive
MYO1E (myosin IE)	2.49	inactive
MYO1E (myosin IE)	1.71	inactive
MYO1E (myosin IE)	1.75	inactive
MYO1E (myosin IE)	2.65	inactive
DGCR2 (DiGeorge syndrome critical region gene 2)	0.19	inactive
DGCR2 (DiGeorge syndrome critical region gene 2)	-0.68	inactive
DGCR2 (DiGeorge syndrome critical region gene 2)	-0.64	inactive
DGCR2 (DiGeorge syndrome critical region gene 2)	1.05	inactive
CYP3A7 (cytochrome P450 family 3 subfamily A member 7)	0.52	inactive
CYP3A7 (cytochrome P450 family 3 subfamily A member 7)	0.34	inactive
CYP3A7 (cytochrome P450 family 3 subfamily A member 7)	-0.15	inactive
CYP3A7 (cytochrome P450 family 3 subfamily A member 7)	0.62	inactive
MTG1 (mitochondrial ribosome associated GTPase 1)	0.19	inactive
MTG1 (mitochondrial ribosome associated GTPase 1)	1.13	inactive
MTG1 (mitochondrial ribosome associated GTPase 1)	-0.12	inactive
MTG1 (mitochondrial ribosome associated GTPase 1)	1.32	inactive
PANX1 (pannexin 1)	0.33	inactive
PANX1 (pannexin 1)	-0.05	inactive
PANX1 (pannexin 1)	1.55	inactive
PANX1 (pannexin 1)	0.57	inactive
CHD1L (chromodomain helicase DNA binding protein 1 like)	-0.11	inactive
CHD1L (chromodomain helicase DNA binding protein 1 like)	0.54	inactive
CHD1L (chromodomain helicase DNA binding protein 1 like)	-0.59	inactive
CHD1L (chromodomain helicase DNA binding protein 1 like)	0.04	inactive
PRPS1L1 (phosphoribosyl pyrophosphate synthetase 1 like 1)	1.55	inactive
PRPS1L1 (phosphoribosyl pyrophosphate synthetase 1 like 1)	-1.02	inactive
PRPS1L1 (phosphoribosyl pyrophosphate synthetase 1 like 1)	0.35	inactive
PRPS1L1 (phosphoribosyl pyrophosphate synthetase 1 like 1)	2.18	inactive
FUCA1 (alpha-L-fucosidase 1)	-0.82	inactive
FUCA1 (alpha-L-fucosidase 1)	-0.6	inactive
FUCA1 (alpha-L-fucosidase 1)	0.28	inactive
FUCA1 (alpha-L-fucosidase 1)	-0.13	inactive
SOFU1 (sperm-oocyte fusion factor 1)	-1.11	inactive
SOFU1 (sperm-oocyte fusion factor 1)	-1.03	inactive
SOFU1 (sperm-oocyte fusion factor 1)	-1.55	active
SOFU1 (sperm-oocyte fusion factor 1)	-0.99	inactive
HELZ2 (helicase with zinc finger 2)	-0.51	inactive
HELZ2 (helicase with zinc finger 2)	0.13	inactive
HELZ2 (helicase with zinc finger 2)	-0.22	inactive
HELZ2 (helicase with zinc finger 2)	-0.35	inactive
SLIT3 (slit guidance ligand 3)	2.74	inactive
SLIT3 (slit guidance ligand 3)	0.52	inactive
SLIT3 (slit guidance ligand 3)	1.12	inactive
SLIT3 (slit guidance ligand 3)	2.11	inactive

11 entries already listed, ordered by “TNF reporter robust z-score”, highest first:
target gene	TNF reporter robust z-score	Call
RNPEPL1 (arginyl aminopeptidase like 1)	3.17	active
RNPEPL1 (arginyl aminopeptidase like 1)	2.1	inactive
HS2ST1 (heparan sulfate 2-O-sulfotransferase 1)	1.32	inactive
BANP (BTG3 associated nuclear protein)	0.78	inactive
RNPEPL1 (arginyl aminopeptidase like 1)	0.64	inactive
BANP (BTG3 associated nuclear protein)	0.46	inactive
HS2ST1 (heparan sulfate 2-O-sulfotransferase 1)	0.31	inactive
BANP (BTG3 associated nuclear protein)	0.22	inactive
RNPEPL1 (arginyl aminopeptidase like 1)	-0.38	inactive
OR4C3 (olfactory receptor family 4 subfamily C member 3)	-0.4	inactive
BANP (BTG3 associated nuclear protein)	-1.06	inactive
